Measured values taken from PubChem BioAssay AID330 (DTP/NCI, 2004).
The list is a part of this screen's results and no random one: it is rich in T/C values a quarter to a half above the control, in often repeated tests (any T/C) and in doses without a T/C. Further doses and runs are listed elsewhere. T/C is the treated group as % of the vehicle group. Some entries give survivors of the animals treated and no T/C: the source files T/C as zero there, which appears to mark a toxic dose or a test without result, not a measured value. Some survivor counts are full or nearly so, which does not show that the dose was tolerated: survival well below the control is almost never listed, so the zero probably covers shortened survival too. Counts of survivors are from the toxicity check (mostly the fifth day) where no day follows; animals may have died later. Schedule codes are those of the source, read here as Q, the interval in days (D) or hours (H), X, the number of doses. Where survival is the endpoint, this PubChem deposit counts one and a half times the control or more as active, and values a quarter to a half above the control carry no call in these data; other NCI protocols may use other cut-offs. Some entries hold several experiments; the values are given in rising order. Some T/C values carry the count of animals alive at the toxicity check (mostly the fifth day); without a count, all were alive then.

System: P388 leukemia ip, CD2F1 mice, survival T/C
Assay: NCI In Vivo Anticancer Drug Screen. Data for tumor model P388 Leukemia (intraperitoneal) in CD2F1 (CDF1) mice
Details: T/C endpoint: median survival time, higher T/C = longer survival
[1] = dose: 200.0 mg/kg/injection, schedule: Q01DX005 (ip), vehicle: Klucel (hydroxypropylcellulose) (HPC)
[2] = dose: 2.0 mg/kg/injection, schedule: Q01DX005 (ip), vehicle: water
[3] = dose: 32.0 mg/kg/injection, schedule: Q01DX005 (ip), vehicle: water

What does the source list for `Cn1nnc2c(C(N)=O)ncn2c1=O`?
T/C (dose: 50.0 mg/kg/injection, schedule: Q01DX005 (ip), vehicle: saline with Tween-80): 145 % of control; T/C (dose: 50.0 mg/kg/injection, schedule: Q01DX005 (ip), vehicle: saline): 130 [5 of 6 alive] and 146 % of control; survivor count (dose: 400.0 mg/kg/injection, schedule: Q01DX005 (ip), vehicle: saline with Tween-80): 3 of 6; survivor count (dose: 400.0 mg/kg/injection, schedule: Q01DX005 (ip), vehicle: saline): 2 of 10

Which survivor count (dose: 100.0 mg/kg/injection, schedule: Q04DX003 (ip), vehicle: saline) does the source give for `COc1ccc2c(c1)N(CCC1CCCCN1C)c1ccccc1S2` (stereo not given) here?
The survivor count was 3 of 6.

Which survivor count (dose: 25.0 mg/kg/injection, schedule: Q01DX005 (ip), vehicle: Klucel (hydroxypropylcellulose) (HPC)) does the source give for `CCCCc1ccc2nccc(N/N=C/c3ccc(OC)c4ccccc34)c2c1` here?
Its survivor count is 6 of 6.

And the survivor count (dose: 50.0 mg/kg/injection, schedule: Q01DX005 (ip), vehicle: Klucel (hydroxypropylcellulose) (HPC))?
The survivor count was 6 of 6.

And the survivor count (dose: 100.0 mg/kg/injection, schedule: Q01DX005 (ip), vehicle: Klucel (hydroxypropylcellulose) (HPC))?
Its survivor count is 6 of 6.

And the survivor count [1]?
The survivor count was 1 of 6.

How did the survivor count (dose: 200.0 mg/kg/injection, schedule: Q01DX005 (ip), vehicle: saline with Tween-80) turn out when `CCOC(=O)c1sc(=S)n(CC)c1C` was run?
Its survivor count is 0 of 6.

For `C#CC1(OC(=O)Nc2cccc(Cl)c2)CCCCC1`, which T/C (dose: 100.0 mg/kg/injection, schedule: Q01DX009 (ip), vehicle: saline with Tween-80) is on record?
The T/C was 130 % of control.

For `O=C(O)C(CCCCNC(=S)S)NC(=S)S.[Zn+2]` (stereo not given), which survivor count [1] is on record?
The survivor count was 2 of 3.

For `Oc1c(Cl)c(Cl)c(O)c2c1CCCC2`, which survivor count (dose: 100.0 mg/kg/injection, schedule: Q04DX002 (ip), vehicle: saline with Tween-80) is on record?
Its survivor count is 0 of 6.

And the survivor count (dose: 200.0 mg/kg/injection, schedule: Q04DX002 (ip), vehicle: saline with Tween-80)?
Its survivor count is 0 of 6.

And the survivor count (dose: 400.0 mg/kg/injection, schedule: Q04DX002 (ip), vehicle: saline with Tween-80)?
Its survivor count is 0 of 6.

With `N[C@H](C(=O)O)[C@@H]1CC(Cl)=NO1` as the compound, how does the T/C (dose: 0.06 mg/kg/injection, schedule: Q01DX009 (ip), vehicle: saline) read?
The T/C was 126 % of control.

What about the T/C (dose: 0.13 mg/kg/injection, schedule: Q01DX009 (ip), vehicle: saline) of the same compound?
Its T/C is 128 and 132 % of control.

What about the T/C (dose: 0.25 mg/kg/injection, schedule: Q01DX009 (ip), vehicle: saline) of the same compound?
Its T/C is 126 % of control.

And the T/C (dose: 1.0 mg/kg/injection, schedule: Q01DX009 (ip), vehicle: saline)?
The T/C was 134 % of control.

What about the T/C (dose: 1.5 mg/kg/injection, schedule: Q01DX009 (ip), vehicle: saline, evaluated on day 5) of the same compound?
Its T/C is 153 and 171 % of control.

What about the T/C (dose: 1.5 mg/kg/injection, schedule: Q01DX009 (ip), vehicle: saline, evaluated on day 45) of the same compound?
The T/C was 174 and 177 % of control.

What about the T/C (dose: 2.0 mg/kg/injection, schedule: Q01DX005 (ip), vehicle: saline) of the same compound?
The T/C was 130 % of control.

And the T/C [2]?
Its T/C is 130 % of control.

What about the survivor count [2] of the same compound?
Its survivor count is 5 of 5.

What about the T/C (dose: 2.59 mg/kg/injection, schedule: Q01DX005 (ip), vehicle: saline) of the same compound?
The T/C was 141 % of control.

What about the T/C (dose: 3.0 mg/kg/injection, schedule: Q01DX005 (ip), vehicle: saline) of the same compound?
The T/C was 144 % of control.

And the T/C (dose: 3.12 mg/kg/injection, schedule: Q01DX005 (ip), vehicle: water)?
The T/C was 149 % of control.

And the T/C (dose: 3.13 mg/kg/injection, schedule: Q04DX003 (ip), vehicle: other)?
The T/C was 126 % of control.

What about the T/C (dose: 4.0 mg/kg/injection, schedule: Q01DX005 (ip), vehicle: saline) of the same compound?
The T/C was 132 % of control.

What about the T/C (dose: 4.0 mg/kg/injection, schedule: Q01DX005 (ip), vehicle: water) of the same compound?
The T/C was 143 % of control.

What about the T/C (dose: 6.0 mg/kg/injection, schedule: Q01DX005 (ip), vehicle: saline) of the same compound?
Its T/C is 144 % of control.

And the T/C (dose: 6.0 mg/kg/injection, schedule: Q01DX005 (iv), vehicle: saline)?
The T/C was 132 % of control.

What about the T/C (dose: 6.25 mg/kg/injection, schedule: Q04DX003 (ip), vehicle: other) of the same compound?
Its T/C is 127 % of control.

What about the survivor count (dose: 8.0 mg/kg/injection, schedule: Q01DX005 (ip), vehicle: water) of the same compound?
Its survivor count is 5 of 5.

What about the T/C (dose: 9.0 mg/kg/injection, schedule: Q01DX009 (ip), vehicle: saline) of the same compound?
Its T/C is 146 % of control.

What about the T/C (dose: 10.0 mg/kg/injection, schedule: Q04DX003 (ip), vehicle: saline, evaluated on day 30) of the same compound?
The T/C was 138 % of control.

And the T/C (dose: 10.0 mg/kg/injection, schedule: Q04DX003 (ip), vehicle: saline, evaluated on day 45)?
The T/C was 140 and 148 % of control.

And the T/C (dose: 12.0 mg/kg/injection, schedule: Q01DX005 (ip), vehicle: saline)?
Its T/C is 145 % of control.

What about the T/C (dose: 12.5 mg/kg/injection, schedule: Q04DX003 (ip), vehicle: other) of the same compound?
Its T/C is 136 % of control.

What about the survivor count (dose: 15.0 mg/kg/injection, schedule: Q01DX009 (ip), vehicle: saline) of the same compound?
Its survivor count is 8 of 8.

What about the T/C (dose: 16.0 mg/kg/injection, schedule: Q01DX005 (iv), vehicle: saline) of the same compound?
The T/C was 141 % of control.

And the T/C (dose: 20.0 mg/kg/injection, schedule: Q04DX003 (ip), vehicle: saline, evaluated on day 30)?
The T/C was 138 % of control.

What about the T/C (dose: 20.0 mg/kg/injection, schedule: Q04DX003 (ip), vehicle: saline, evaluated on day 45) of the same compound?
The T/C was 148 % of control.

What about the T/C (dose: 25.0 mg/kg/injection, schedule: Q04DX003 (ip), vehicle: other) of the same compound?
Its T/C is 145 % of control.

What about the survivor count (dose: 32.0 mg/kg/injection, schedule: Q01DX005 (ip), vehicle: saline) of the same compound?
Its survivor count is 6 of 6.

And the T/C [3]?
The T/C was 142 % of control.

What about the survivor count [3] of the same compound?
Its survivor count is 3 of 5.

And the survivor count (dose: 32.0 mg/kg/injection, schedule: Q01DX005 (iv), vehicle: saline)?
Its survivor count is 6 of 6.

What about the survivor count (dose: 32.0 mg/kg/injection, schedule: Q01DX009 (ip), vehicle: water) of the same compound?
Its survivor count is 3 of 3.

What about the T/C (dose: 40.0 mg/kg/injection, schedule: Q04DX003 (ip), vehicle: saline) of the same compound?
The T/C was 146 % of control.
